In patent US20240287188A1 (KUMHO HT, published 2024):
Changes are numbered by the printed parent chain. These are yes or no findings as the source states them, for the method shown. Some entries that bind do so weakly or less than the wild type.

Protein sequences, listed by entry. Tags and fused reporters are not part of them. Residues count along the entry.
UniProt P05362, residues 28-480: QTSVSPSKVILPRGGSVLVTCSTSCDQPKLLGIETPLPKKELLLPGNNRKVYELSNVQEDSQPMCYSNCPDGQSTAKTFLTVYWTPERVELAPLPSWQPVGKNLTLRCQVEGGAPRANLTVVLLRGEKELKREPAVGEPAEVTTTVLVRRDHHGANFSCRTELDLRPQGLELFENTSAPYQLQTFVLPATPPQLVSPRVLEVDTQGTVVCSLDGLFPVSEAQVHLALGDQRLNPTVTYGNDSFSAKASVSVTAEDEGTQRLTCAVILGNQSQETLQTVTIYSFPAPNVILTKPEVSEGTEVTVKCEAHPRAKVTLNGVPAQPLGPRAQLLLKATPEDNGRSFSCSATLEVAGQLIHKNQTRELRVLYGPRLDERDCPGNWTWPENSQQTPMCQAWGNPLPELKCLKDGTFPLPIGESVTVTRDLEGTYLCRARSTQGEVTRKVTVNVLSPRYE

B1: humanized anti-ICAM-1 antibody H17L3 (VH17 + VL3), human IgG4/kappa (antibody, V domains shown)
VH: QVQLVQSGAEVKKPGASVKISCKGSGYTFTDYALHWVRQAPGQRLEWMGVISTYSGNTDYNQKFRGRATITVDTSASTAYMELSSLRSEDTAVYYCARSLYFGSSGFDYWGQGTALTVSS
VL: DVVLTQTPLSSPVTLGQPASISCRSSQTLVYRNGNTYLHWYLQRAGQPPRLLIYKVSNRFSGVPDRFSGSGAGTDFTLKISRVEAEDVGVYFCSQNTHFPYTFGGGTKLEIKT
notes: The Arg at the VL/CL junction is in neither entry
B2: humanized anti-ICAM-1 antibody H5L3 (VH5 + VL3), human IgG4/kappa (antibody, V domains shown)
VH: B1 VH with G24A, A68V, T74K, S77T
VL: B1 VL
notes: as for B1
B3: humanized anti-ICAM-1 antibody H17L1 (VH17 + VL1), human IgG4/kappa (antibody, V domains shown)
VH: B1 VH
VL: B1 VL with T7S, S11L, L42Q, A45P, P48S, A72S
B4: humanized anti-ICAM-1 antibody H17L4 (VH17 + VL4), human IgG4/kappa (antibody, V domains shown)
VH: B1 VH
VL: B1 VL with L42Q, A45P
notes: The Arg at the VL/CL junction is in neither entry; also called DNP007; DNP007 antibody (H17L4 antibody)
B5: humanized anti-ICAM-1 antibody H4L3 (VH4 + VL3), human IgG4/kappa (antibody, V domains shown)
VH: B1 VH with I20V, G24A, M48I, A68V, I70M, V72R, S77T, M81L
VL: B1 VL
notes: as for B1

The binders below were run against T1, ICAM-1 protein antigen (R&D System) (human, UniProt P05362 28-480) (assay: ELISA, ICAM-1 coated 100 ng/well).
T1 construct: The assay paragraphs say only 'ICAM-1 (R&D System)'; also called antigen ICAM-1; ICAM-1 antigen

| binding | Binder |
| --- | --- |
| binds | B1 |
| binds | B2 |
| binds | B3 |
| binds | B4 |
| binds | B5 |

What follows are binders tested against T1, ICAM-1 protein antigen (R&D System) (assay: Octet (BLI), antibody on AR2G biosensor, ICAM-1 antigen in solution at 5 concentrations).

| binding | Binder |
| --- | --- |
| binds | B3 |
| binds | B4 |
